# Source: the supplement of paper PMC8728848
# This is one part of the list.
# B1: Adiponectin (Rattus norvegicus), Q8K3R4 (protein)
# chain: MLLLQALLFLLILPSHEGITATEGPGALVPPPKETCAGWMAGIPGYPGHNGIPGRDGRDGTPGEKGEKGDAGVLGPKGDPGDAGMTGAEGPRGFPGTPGRKGEPGEAAYMYHSAFSVGLETRVTVPNVPIRFTKIFYNQQNHYDGSTGKFHCNIPGLYYFSYHITVYMKDVKVSLFKKDKAVLFTYDQYQEKNVDQASGSMLLHLEVGDQVWLQVYGEGDNNGLYADNVNDSTFTGFLLYHDTN
# Tests used:
# Assay in all cases: glycan array binding signal (z-score within array); higher = stronger binding
# Conditions in all cases: glycan notation: IUPAC condensed, linker removed
# [1] = target: Fuc(a1-2)[GalNAc(a1-3)]Gal(b1-4)GlcNAc
# In short: (§1)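 The binding signal is a Z-score computed within each array. Data were drawn from 3228 arrays in the Consortium for Functional Glycomics database, restricted to those with a known protein sequence. Scores were averaged over arrays of the same protein sequence at different concentrations or buffers, and over linkers, and negative values can be taken as non-binding.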
# [2] = target: Fuc(a1-2)[GalNAc(a1-3)]Gal(b1-4)GlcNAc(b1-2)Man(a1-3)[GalNAc(a1-3)[Fuc(a1-2)]Gal(b1-4)GlcNAc(b1-2)Man(a1-6)]Man(b1-4)GlcNAc(b1-4)GlcNAc
# In short: as §1
# [3] = target: Fuc(a1-2)[GalNAc(a1-3)]Gal(b1-4)GlcNAc(b1-3)Gal(b1-4)GlcNAc
# In short: as §1
# [4] = target: Fuc(a1-2)[GalNAc(a1-3)]Gal(b1-4)GlcNAc(b1-3)Gal(b1-4)GlcNAc(b1-3)Gal(b1-4)GlcNAc
# In short: as §1
# [5] = target: Fuc(a1-2)[GalNAc(a1-3)]Gal(b1-4)[Fuc(a1-3)]GlcNAc
# In short: as §1
# [6] = target: Fuc(a1-2)[GalNAc(a1-4)]Gal(b1-4)GlcNAc
# In short: as §1
# [7] = target: Fuc(a1-2)[GalNAc(b1-3)]Gal
# In short: as §1
# Fuc(a1-3)GlcNAc = target: Fuc(a1-3)GlcNAc
# In short: as §1
# [8] = target: Fuc(a1-3)[Gal(b1-4)]Glc6S
# In short: as §1
# [9] = target: Fuc(a1-3)[Gal(b1-4)]GlcNAc
# In short: as §1
# [10] = target: Fuc(a1-3)[Gal(b1-4)]GlcNAc(b1-2)Man(a1-3)[Fuc(a1-3)[Gal(b1-4)]GlcNAc(b1-2)Man(a1-6)]Man(b1-4)GlcNAc(b1-4)GlcNAc
# In short: as §1
# [11] = target: Fuc(a1-3)[Gal(b1-4)]GlcNAc(b1-2)Man(a1-6)[Gal(b1-4)GlcNAc(b1-2)Man(a1-3)]Man(b1-4)GlcNAc(b1-4)GlcNAc
# In short: as §1
# [12] = target: Fuc(a1-3)[Gal(b1-4)]GlcNAc(b1-3)Gal(b1-3)[Fuc(a1-4)]GlcNAc
# In short: as §1
# [13] = target: Fuc(a1-3)[Gal(b1-4)]GlcNAc(b1-4)Gal(b1-4)[Fuc(a1-3)]GlcNAc
# In short: as §1
# [14] = target: Fuc(a1-3)[Gal(b1-4)]GlcNAc(b1-4)Gal(b1-4)[Fuc(a1-3)]GlcNAc(b1-4)Gal(b1-4)[Fuc(a1-3)]GlcNAc
# In short: as §1
# [15] = target: Fuc(a1-3)[Gal(b1-4)]GlcNAc6S
# In short: as §1
# [16] = target: Fuc(a1-3)[Gal3S(b1-4)]Glc6S
# In short: as §1
# [17] = target: Fuc(a1-3)[Gal3S(b1-4)]GlcNAc
# In short: as §1
# [18] = target: Fuc(a1-3)[Gal3S(b1-4)]GlcNAc6S
# In short: as §1
# [19] = target: Fuc(a1-3)[GalNAc(b1-4)]GlcNAc
# In short: as §1
# Fuc(a1-4)GlcNAc = target: Fuc(a1-4)GlcNAc
# In short: as §1
# Fuc(b1-3)GlcNAc = target: Fuc(b1-3)GlcNAc
# In short: as §1
# Gal(a1-2)Gal = target: Gal(a1-2)Gal
# In short: as §1
# Gal(a1-3)Gal = target: Gal(a1-3)Gal
# In short: as §1
# Gal(a1-3)Gal(b1-3)GlcNAc = target: Gal(a1-3)Gal(b1-3)GlcNAc
# In short: as §1
# Gal(a1-3)Gal(b1-4)Glc = target: Gal(a1-3)Gal(b1-4)Glc
# In short: as §1
# Gal(a1-3)Gal(b1-4)GlcNAc = target: Gal(a1-3)Gal(b1-4)GlcNAc
# In short: as §1
# [20] = target: Gal(a1-3)Gal(b1-4)[Fuc(a1-3)]GlcNAc
# In short: as §1
# [21] = target: Gal(a1-3)Gal(b1-4)[Fuc(a1-3)]GlcNAc(b1-2)Man(a1-3)[Gal(a1-3)Gal(b1-4)[Fuc(a1-3)]GlcNAc(b1-2)Man(a1-6)]Man(b1-4)GlcNAc(b1-4)GlcNAc
# In short: as §1
# Gal(a1-3)GalNAc = target: Gal(a1-3)GalNAc
# In short: as §1
# [22] = target: Gal(a1-3)[Gal(a1-4)]Gal(b1-4)GlcNAc
# In short: as §1
# Gal(a1-4)Gal(b1-4)Glc = target: Gal(a1-4)Gal(b1-4)Glc
# In short: as §1
# Gal(a1-4)Gal(b1-4)GlcNAc = target: Gal(a1-4)Gal(b1-4)GlcNAc
# In short: as §1
# [23] = target: Gal(a1-4)Gal(b1-4)GlcNAc(b1-3)Gal(b1-4)Glc
# In short: as §1
# Gal(a1-4)GlcNAc = target: Gal(a1-4)GlcNAc
# In short: as §1
# Gal(a1-6)Glc = target: Gal(a1-6)Glc
# In short: as §1
# Gal(b1-2)Gal = target: Gal(b1-2)Gal
# In short: as §1
# Gal(b1-3)Gal = target: Gal(b1-3)Gal
# In short: as §1
binder,measurement,setting,value
B1,glycan array binding signal (z-score),[1],-0.634
same,glycan array binding signal (z-score),[2],2.81
same,glycan array binding signal (z-score),[3],0.183
same,glycan array binding signal (z-score),[4],2.87
same,glycan array binding signal (z-score),[5],-0.729
same,glycan array binding signal (z-score),[6],-0.373
same,glycan array binding signal (z-score),[7],0.034
same,glycan array binding signal (z-score),Fuc(a1-3)GlcNAc,-0.196
same,glycan array binding signal (z-score),[8],1.98
same,glycan array binding signal (z-score),[9],-0.018
same,glycan array binding signal (z-score),[10],-1.22
same,glycan array binding signal (z-score),[11],-1
same,glycan array binding signal (z-score),[12],-0.745
same,glycan array binding signal (z-score),[13],-0.803
same,glycan array binding signal (z-score),[14],-0.968
same,glycan array binding signal (z-score),[15],1.21
same,glycan array binding signal (z-score),[16],-1.09
same,glycan array binding signal (z-score),[17],-0.025
same,glycan array binding signal (z-score),[18],-0.745
same,glycan array binding signal (z-score),[19],-0.811
same,glycan array binding signal (z-score),Fuc(a1-4)GlcNAc,-0.659
same,glycan array binding signal (z-score),Fuc(b1-3)GlcNAc,0.752
same,glycan array binding signal (z-score),Gal(a1-2)Gal,0.075
same,glycan array binding signal (z-score),Gal(a1-3)Gal,1.4
same,glycan array binding signal (z-score),Gal(a1-3)Gal(b1-3)GlcNAc,-0.495
same,glycan array binding signal (z-score),Gal(a1-3)Gal(b1-4)Glc,2.17
same,glycan array binding signal (z-score),Gal(a1-3)Gal(b1-4)GlcNAc,0.022
same,glycan array binding signal (z-score),[20],-0.702
same,glycan array binding signal (z-score),[21],2.75
same,glycan array binding signal (z-score),Gal(a1-3)GalNAc,-0.349
same,glycan array binding signal (z-score),[22],0.915
same,glycan array binding signal (z-score),Gal(a1-4)Gal(b1-4)Glc,1.46
same,glycan array binding signal (z-score),Gal(a1-4)Gal(b1-4)GlcNAc,-0.311
same,glycan array binding signal (z-score),[23],-0.1
same,glycan array binding signal (z-score),Gal(a1-4)GlcNAc,-0.334
same,glycan array binding signal (z-score),Gal(a1-6)Glc,-0.915
same,glycan array binding signal (z-score),Gal(b1-2)Gal,-0.961
same,glycan array binding signal (z-score),Gal(b1-3)Gal,1.21

# Laid out differently: results already given
binder	measurement	setting	value
B1	glycan array binding signal (z-score)	Gal(a1-3)GalNAc	-0.349
same	glycan array binding signal (z-score)	[22]	0.915
same	glycan array binding signal (z-score)	Gal(a1-4)Gal(b1-4)Glc	1.46
